doi:10.1101/2022.06.03.494746
No constants are given. Whether binding was seen depends on the method and setting. Binding seen in cells or lysates may run through a third protein. Binding calls can cover weak binding; strength is not graded here.

Tests used:
[1] = biological target: DCP1-GFP (Arabidopsis); assay: FRET or BRET
[2] = biological target: DCP1^S237A-GFP (Arabidopsis); assay: FRET or BRET
[3] = biological target: DCP1-GFP (Arabidopsis); assay: FRET or BRET; remark: listed apart in the source
[4] = biological target: DCP1-GFP (Arabidopsis); assay: proximity ligation

Measured: binding

B1: SCAR2-mCherry (protein, UniProt Q5XPJ9 1-1399)
chain: MPLTRYQSRNEYGLADPDLYQAADKDDPEALLEGVAMAGLVGILRQLGDLAEFAAEMFHDLHEEVMATASRSHGLMARVQQLEAEFPSIEKALLCQTDHSPFFSNKGVEWHPNLQLEQSVVTSGDLPRCVMDSYEECRGPPRLFLLDKFDISGAGACLKRYTDPSFVRLETSSYEESWDDIQREKKSQKAKRRASQWRNGGTPENALSSHAKLHELFLEEHLEAHHSDPARVVKLKTRKLDGCSLISKSGESYMEKFVQTRVDSKISYEIITQNPGLLTWNMDSARDVVTDIPEISMVGAMDKSHGGSRAEVSFPSEQENVANVNMNGGFIEKDIETVPESTYNEVRGTTITQDSQTVLNGKPGFFQQRSYSEDLTSEADNYVDAPATMESETETDDECRPKSRSDTLKDGNHHIYSDAVEERMEDPPQFSFSHSNGNTPVSENGRSSFGKKSTSYSYSDTASISIDDQSDGEKLSGCLPSTSSFKSELVDSMSHVTPEANKVSHDLNVQESVSSSNVDGQTSLSSNGTCSSPRPVSQNDQSCSLTVQSLASEVVETSPELVRLDLMKGGNDGRKVDPFDSSKSCASFDAKNSDLPSETSSISSTSEGSRCDSTIEKNCMVASNLVNSGTSPQAFVDSQTGKQLPIADTDFETNSIVACSEVLANSGSDPEERDGRCLTGKLVPCSAGVGMEVSPDTPSKVCGPSSADGIHLKDTLDDETDCVSVTNVVVDVDSKNSVADVGSQSSVADIDSQSSVAEISDEHSCAFGNTADVSVSESHEDTLENGMSVPSDFNSGVEKLAGDASPTCSKCDDHISHEGFHDLSGLDNATTDIVPNVELDVSDNDNDTSSGGVNHAVSLSSTRGKGSLPWISTNTYQSSSDAGEIFHDTVVESDGTLLEDNNPESEIKMHKSPLEVSSEGLSTEPDNKDVESIESTSPKPSLDQRNRDTETKSPGESILDDNCIDSTQVYNLNLLESEAIDQAVREQTSYASHEVADEELLQSNVFRGLEFEPQSAGLEFAPQSAGIELNRPKQELNLDPTFPSFGFIPETIPPNPEDMPPLPPMQWLIGKVPHSFPTFMGESVETSSSALSAAPPIGSSLNVQIGSPPSELSVSLGSDESERLPGGFVHNASEKPLQSSIQFPTMSTDLNSQYDSSELPTIPYQECIEDFGSEENNLLADHAAQNHELVYSQASSLQLPQVKHEDFKDDADVHESQSSSDDHHCPETKSLTPTQSTKVEDKGHSVPDASNAETAESSNTSVQKINPVSVGDAMWPVSCFSVAPTLDTYKTEVVPTVRLPRPRSPLVDAVAAHDRRKMKKVSEMVHPPIKSKQDDKDSLLAQIRNKSVNLKPAVTTRPSIQTGPRTDLRVAAILEKANTIRMAMAGSDEDEDSDSWSDS
binds: all assays above
